# Measured values: patent US20070167421A1, “Pyrimidine derivatives and use thereof as agricultural and horticultural fungicides” (priority 2004, published 2007)
# Some of these results come from one statement about several compounds together.
# Assays:
# Sphaerotheca fuliginea = experiment: Test for effect of foliage application against Sphaerotheca fuliginea; type: in vivo; settings: 500 ppm, sprayed on cucumber seedlings one day before inoculation; evaluated seven days after inoculation
# Alternaria mali = experiment: Test for effect of foliage application against Alternaria mali (detached leaves); type: in vivo; settings: 500 ppm, sprayed on detached leaves one day before inoculation; evaluated four days after inoculation
SMILES,controlling value (Sphaerotheca fuliginea),controlling value (Alternaria mali)
"Clc1ncnc(N2CCCC2)c1Cc1ccccc1 [Compound 1-5, 5-benzyl-4-chloro-6-pyrrolidin-1-yl-pyrimidine]",more than 80%,more than 80%
"Fc1cccc(Cc2c(Cl)ncnc2N2CCCC2)c1 [Compound 1-56, 4-Chloro-5-(3-fluorobenzyl)-6-pyrrolidin-1-yl-pyrimidine]",more than 80%,more than 80%
"Fc1cccc(Cc2cncnc2N2CCCC2)c1 [Compound 1-102, 5-(3-fluorobenzyl)-4-pyrrolidin-1-yl-pyrimidine]",–,more than 80%
